# In PubChem BioAssay AID1487 (National Center for Advancing Translational Sciences (NCATS), 2009):
# Some of the results follow. These are further read-outs of the screen, such as a control signal, another cell line or another target. No call is given for them. Compounds called inactive in the main read-out are mostly missing here. Potencies come from curve fits of mixed quality, noted in brackets.
# Assay: qHTS Assay for Modulators of Lamin A Splicing
# Conditions: HeLa LMNA splicing GFP/RFP minigene ratio, 48 h
# How it was run: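 S3 HeLa cells stably expressing lamin A-EGFP splicing minigene plus DsRed2, 600 cells/well, 48 h compound exposure at 37C. Laser-scanning cytometry; analysed as GFP (500-530 nm)/RFP (575-640 nm) total intensity ratio; 0.5% DMSO vehicle.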
# [1] = measured here: RFP viability control channel
# [2] = measured here: GFP splicing reporter channel
smiles,measurement,setting,value
Cc1cc(C(=O)Cn2nnc3ccccc3c2=O)c(C)n1Cc1cccs1,AC50,[1],"25.1 µM [rising, single point]"
O=[N+]([O-])c1ccc(C=Nc2ccc(Cl)cc2Cl)s1,AC50,[2],"8.91 µM [falling, partial curve]"
same,AC50,[1],"7.94 µM [falling, partial curve]"
O=C(NCC1CCN(Cc2ccc(F)cc2)CC1)c1cc2ccc3cccnc3c2[nH]1,AC50,[2],"1.12 µM [falling, full curve]"
same,AC50,[1],"0.562 µM [falling, full curve, poor fit]"
Cc1nnc(C)n1/N=C/c1cc(Br)cc(Br)c1O,AC50,[1],"12.6 µM [rising, single point]"
COc1ccc(C2=Nn3c(nnc3-c3ccc(OC)cc3)SC2)cc1,AC50,[2],"11.2 µM [falling, partial curve]"
same,AC50,[1],"35.5 µM [falling, single point]"
Cc1ccc(CNCc2cc3c(C(C)(C)C)nn(-c4ccccc4)c3[nH]c2=O)cc1,AC50,[2],"11.2 µM [rising, single point]"
same,AC50,[1],"12.6 µM [rising, single point]"
C/C(CCc1oc2ccccc2c1-c1ccc(C)o1)=N/O,AC50,[2],"12.6 µM [rising, partial curve, poor fit]"
same,AC50,[1],"25.1 µM [rising, single point]"
CC(C)(C)n1nnnc1C(c1cccs1)N(Cc1ccccc1)Cc1cccnc1 (stereo unspecified),AC50,[2],"11.2 µM [rising, partial curve, poor fit]"
same,AC50,[1],"20 µM [rising, single point]"
O=c1c2cnn(-c3ccccc3)c2nc(-c2cccs2)n1-c1cccc(Cl)c1,AC50,[1],"6.31 µM [rising, partial curve]"
Cc1nn(C)cc1/C=C/C(=O)c1ccc(O)cc1,AC50,[1],"22.4 µM [rising, single point]"
Cc1ccc(C(=O)Nc2cc(-c3ccn[nH]3)c(C)n(N)c2=O)cc1,AC50,[1],"0.0224 µM [falling, full curve, poor fit]"
N#C[C@H]1[C@H](c2ccccc2)[C@](C#N)(C(=O)c2ccccc2)[C@@H]2C=Cc3ccccc3N21,AC50,[2],"3.55 µM [falling, partial curve]"
same,AC50,[1],"3.98 µM [falling, partial curve]"
Cc1ccc(NC(=O)CSc2nc(-c3ccco3)cc(C(F)(F)F)n2)cc1C,AC50,[1],"2.24 µM [rising, full curve]"
COc1ccc(-c2nn(-c3ccccc3)cc2/C=C/C(=O)OCC(=O)Nc2cccc(C#N)c2)cc1,AC50,[2],"0.501 µM [falling, partial curve, poor fit]"
CCOC(=O)c1csc(NC(=O)CCSc2ccccc2)n1,AC50,[1],"1.41 µM [falling, full curve]"
CC(C)(C)NS(=O)(=O)c1ccc(OCC(=O)NCc2ccco2)cc1,AC50,[2],"0.224 µM [rising, full curve, poor fit]"
CCCCNC(=S)N(C)/N=C/c1c(C)[nH]c2ccccc12,AC50,[1],"35.5 µM [rising, single point]"
ON=C1/C(=N\O)CC2(C/C1=N/O)OCCO2,AC50,[2],"12.6 µM [rising, single point]"
same,AC50,[1],"17.8 µM [rising, single point]"
Cc1cccc(NC(=O)CSc2nc(=O)n(Cc3cccnc3)c3c2CCC3)c1,AC50,[2],"0.00891 µM [falling, full curve, poor fit]"
CC1CC(C)CN(C(=S)Nc2ccc(SC(F)F)cc2)C1 (stereo unspecified),AC50,[1],"22.4 µM [rising, single point]"
COc1c(C(=O)NCCSC(C)(C)C)ccc2ccccc12,AC50,[2],"11.2 µM [rising, partial curve, poor fit]"
same,AC50,[1],"10 µM [rising, partial curve, poor fit]"
COc1cccc(C(=O)N(Cc2nc(-c3ccc(C)cc3)no2)C(C)C)c1,AC50,[1],"22.4 µM [rising, partial curve, poor fit]"
Cc1nc2ccccc2cc1C(=O)N/N=C/c1ccc([N+](=O)[O-])cc1,AC50,[2],"4.47 µM [rising, partial curve]"
COC(c1ccccc1)c1nnc(CCC(=O)N(C)Cc2cccc(-n3cccn3)c2)o1 (stereo unspecified),AC50,[1],"0.0251 µM [falling, full curve, poor fit]"
N#C/C(=C\c1ccc(-c2ccc(C(=O)O)cc2)o1)c1nc2ccccc2[nH]1,AC50,[1],"11.2 µM [rising, single point]"
Cc1cc(C)n(CC(O)COc2cccc(OCC(O)Cn3nc(C)cc3C)c2)n1 (stereo unspecified),AC50,[1],"12.6 µM [rising, single point]"
Cc1ccc(-n2c(-c3ccccc3)c[n+]3c2CCc2ccccc2-3)c(C)c1,AC50,[1],"35.5 µM [rising, single point]"
CCOc1ccc2ccccc2c1C(=O)N1CCN(c2ccccc2)CC1,AC50,[1],"12.6 µM [rising, single point]"
COc1ccc(NC(=O)C(c2ccccc2)N(C)C(=O)c2ccc(=O)[nH]c2)cc1 (stereo unspecified),AC50,[1],"0.00562 µM [falling, full curve, poor fit]"
O=c1c2cnn(-c3ccccc3)c2ncn1Cc1ccccn1,AC50,[1],"20 µM [rising, single point]"
CC(Sc1ncnc2ccccc12)C(=O)Nc1ccc2c(c1)OCO2 (stereo unspecified),AC50,[2],"15.8 µM [falling, single point]"
Cc1nn(Cc2c(Cl)cccc2Cl)c(Cl)c1/C=N/NC(=O)c1cccnc1,AC50,[2],"0.501 µM [rising, full curve, poor fit]"
same,AC50,[1],"0.0891 µM [rising, full curve, poor fit]"
COc1ccc(N2CCN(C(=O)c3nn(-c4ccc(C)cc4)c(=O)n(C)c3=O)CC2)cc1,AC50,[1],"3.55 µM [falling, partial curve, poor fit]"
Cc1cc(O)ccc1C1(c2ccc(O)cc2C)OC(=O)c2ccccc21,AC50,[1],"22.4 µM [rising, single point]"
COc1cc2ncc3c(-c4ccccc4)nn(-c4ccc(C)cc4)c3c2cc1OC,AC50,[2],"35.5 µM [falling, single point]"
same,AC50,[1],"35.5 µM [falling, single point]"
Cc1cc(C)cc(NC(=O)N2CCCC2C(=O)NCc2ccco2)c1 (stereo unspecified),AC50,[2],"6.31 µM [rising, single point]"
CSC1=NC2(CCCCC2)CC12C=CC(=O)C=C2,AC50,[2],"17.8 µM [falling, partial curve, poor fit]"
Cc1ccc(CNc2ncnc3cc(Cl)ccc23)o1,AC50,[2],"15.8 µM [rising, partial curve, poor fit]"
same,AC50,[1],"12.6 µM [rising, partial curve]"
COc1cc(/C=C/C(=O)OCC(=O)NC(=O)NC(C)C)cc(OC)c1OC,AC50,[1],"6.31 µM [rising, single point]"
Cc1cccc(C)c1NC(=O)CCn1cnc2ccccc2c1=O,AC50,[2],"0.0447 µM [rising, full curve, poor fit]"
Cc1ccccc1N=CC=C1OC(C)(C)C(C)(C)O1,AC50,[1],"11.2 µM [rising, single point]"
Clc1ccc(OCCCNCc2ccccc2)c(Br)c1,AC50,[2],"25.1 µM [falling, single point]"
same,AC50,[1],"25.1 µM [falling, partial curve]"
COc1cc(C(=O)NCCC(C)C)ccc1OCc1ccc(Cl)cc1Cl,AC50,[2],"17.8 µM [rising, single point]"
same,AC50,[1],"35.5 µM [rising, partial curve]"
CC(=O)c1ccc(Sc2nnnn2-c2ccccc2)c([N+](=O)[O-])c1,AC50,[2],"22.4 µM [falling, single point]"
CN(C)c1ccc(-c2ccc3ncnc(-n4ccnc4)c3c2)cc1,AC50,[2],"2.24 µM [falling, full curve]"
same,AC50,[1],"2.82 µM [falling, full curve]"
O=C(NC12CC3CC(CC(C3)C1)C2)c1ccc(-c2ccc(Cl)cc2)o1,AC50,[2],"12.6 µM [rising, partial curve]"
same,AC50,[1],"22.4 µM [rising, partial curve]"
COC(=O)CSc1nnc(-c2ccncc2)n1N,AC50,[1],"0.0562 µM [falling, full curve, poor fit]"
Cc1ccc([N+](=O)[O-])cc1S(=O)(=O)N1CCn2cccc2C1c1ccc(F)c(F)c1 (stereo unspecified),AC50,[2],"14.1 µM [rising, partial curve, poor fit]"
CCCOc1ccc(NC(=O)CC2C(=O)N(Cc3ccccc3)C(=S)N2Cc2cccs2)cc1 (stereo unspecified),AC50,[2],"10 µM [rising, single point]"
same,AC50,[1],"22.4 µM [rising, single point]"
CC(=O)c1cccc(NC(=O)c2ccc3nc(C(C)C)oc3c2)c1,AC50,[2],"17.8 µM [falling, partial curve, poor fit]"
NC(=O)C1(N2CCCCC2)CCN(CC(=O)Nc2cc(Cl)ccc2Cl)CC1,AC50,[1],"35.5 µM [rising, single point]"
Cc1cccc2cc3c(N)c(C(=O)N4CCCc5ccccc54)sc3nc12,AC50,[2],"35.5 µM [falling, single point]"
O=C(CN1C(=O)S/C(=C\c2ccccc2)C1=O)NNC(=O)c1ccccc1O,AC50,[2],"35.5 µM [rising, single point]"
Cc1ccc2cccc(OCC(=O)N3CC(C)CC(C)C3)c2n1 (stereo unspecified),AC50,[1],"0.355 µM [rising, full curve]"
COC(=O)CSc1nc(N)c2c3c(sc2n1)C(c1ccccc1)SC(c1ccccc1)C3 (stereo unspecified),AC50,[2],"28.2 µM [falling, single point]"
same,AC50,[1],"31.6 µM [falling, single point]"
COc1ccc(/C=C/C(=O)c2ccc(O)cc2)cc1CN1CCOCC1,AC50,[1],"10 µM [rising, partial curve]"
Cc1cc(C)c2nc(C(F)(F)F)nc(NCCCN3CCOCC3)c2c1,AC50,[2],"35.5 µM [rising, single point]"
same,AC50,[1],"31.6 µM [rising, single point]"

# In a second layout: results already given
smiles | measurement | setting | value
Cc1cc(C(=O)Cn2nnc3ccccc3c2=O)c(C)n1Cc1cccs1 | AC50 | [1] | 25.1 µM [rising, single point]
O=C(NCC1CCN(Cc2ccc(F)cc2)CC1)c1cc2ccc3cccnc3c2[nH]1 | AC50 | [1] | 0.562 µM [falling, full curve, poor fit]
Cc1nnc(C)n1/N=C/c1cc(Br)cc(Br)c1O | AC50 | [1] | 12.6 µM [rising, single point]
C/C(CCc1oc2ccccc2c1-c1ccc(C)o1)=N/O | AC50 | [2] | 12.6 µM [rising, partial curve, poor fit]
N#C[C@H]1[C@H](c2ccccc2)[C@](C#N)(C(=O)c2ccccc2)[C@@H]2C=Cc3ccccc3N21 | AC50 | [2] | 3.55 µM [falling, partial curve]
ON=C1/C(=N\O)CC2(C/C1=N/O)OCCO2 | AC50 | [1] | 17.8 µM [rising, single point]
Cc1cccc(NC(=O)CSc2nc(=O)n(Cc3cccnc3)c3c2CCC3)c1 | AC50 | [2] | 0.00891 µM [falling, full curve, poor fit]
COc1c(C(=O)NCCSC(C)(C)C)ccc2ccccc12 | AC50 | [2] | 11.2 µM [rising, partial curve, poor fit]
Cc1nc2ccccc2cc1C(=O)N/N=C/c1ccc([N+](=O)[O-])cc1 | AC50 | [2] | 4.47 µM [rising, partial curve]
COc1ccc(NC(=O)C(c2ccccc2)N(C)C(=O)c2ccc(=O)[nH]c2)cc1 (stereo unspecified) | AC50 | [1] | 0.00562 µM [falling, full curve, poor fit]
Cc1nn(Cc2c(Cl)cccc2Cl)c(Cl)c1/C=N/NC(=O)c1cccnc1 | AC50 | [2] | 0.501 µM [rising, full curve, poor fit]
Cc1cc(O)ccc1C1(c2ccc(O)cc2C)OC(=O)c2ccccc21 | AC50 | [1] | 22.4 µM [rising, single point]
Clc1ccc(OCCCNCc2ccccc2)c(Br)c1 | AC50 | [2] | 25.1 µM [falling, single point]
COC(=O)CSc1nnc(-c2ccncc2)n1N | AC50 | [1] | 0.0562 µM [falling, full curve, poor fit]
CC(=O)c1cccc(NC(=O)c2ccc3nc(C(C)C)oc3c2)c1 | AC50 | [2] | 17.8 µM [falling, partial curve, poor fit]
Cc1ccc2cccc(OCC(=O)N3CC(C)CC(C)C3)c2n1 (stereo unspecified) | AC50 | [1] | 0.355 µM [rising, full curve]
